Experiment in all cases: co-IP; lysates (RIPA buffer, 500 μg protein) of 21-day Normal-RGCs and LHON-RGCs; anti-PICK1, anti-Parkin or anti-GRIP1 antibody on protein G magnetic beads; binding buffer 50 mM Hepes, 125 mM NaCl, 0.1% Triton X-100, 15 μM CaCl2, 5 μM EDTA; 4 °C overnight; immunoblot of the precipitates
For orientation: A western blot detects proteins with antibodies after separation by electrophoresis.

Sequences of proteins named here, by UniProt entry; tags and fusion partners are left off. Residues count along the entry.
UniProt Q9Y3R0: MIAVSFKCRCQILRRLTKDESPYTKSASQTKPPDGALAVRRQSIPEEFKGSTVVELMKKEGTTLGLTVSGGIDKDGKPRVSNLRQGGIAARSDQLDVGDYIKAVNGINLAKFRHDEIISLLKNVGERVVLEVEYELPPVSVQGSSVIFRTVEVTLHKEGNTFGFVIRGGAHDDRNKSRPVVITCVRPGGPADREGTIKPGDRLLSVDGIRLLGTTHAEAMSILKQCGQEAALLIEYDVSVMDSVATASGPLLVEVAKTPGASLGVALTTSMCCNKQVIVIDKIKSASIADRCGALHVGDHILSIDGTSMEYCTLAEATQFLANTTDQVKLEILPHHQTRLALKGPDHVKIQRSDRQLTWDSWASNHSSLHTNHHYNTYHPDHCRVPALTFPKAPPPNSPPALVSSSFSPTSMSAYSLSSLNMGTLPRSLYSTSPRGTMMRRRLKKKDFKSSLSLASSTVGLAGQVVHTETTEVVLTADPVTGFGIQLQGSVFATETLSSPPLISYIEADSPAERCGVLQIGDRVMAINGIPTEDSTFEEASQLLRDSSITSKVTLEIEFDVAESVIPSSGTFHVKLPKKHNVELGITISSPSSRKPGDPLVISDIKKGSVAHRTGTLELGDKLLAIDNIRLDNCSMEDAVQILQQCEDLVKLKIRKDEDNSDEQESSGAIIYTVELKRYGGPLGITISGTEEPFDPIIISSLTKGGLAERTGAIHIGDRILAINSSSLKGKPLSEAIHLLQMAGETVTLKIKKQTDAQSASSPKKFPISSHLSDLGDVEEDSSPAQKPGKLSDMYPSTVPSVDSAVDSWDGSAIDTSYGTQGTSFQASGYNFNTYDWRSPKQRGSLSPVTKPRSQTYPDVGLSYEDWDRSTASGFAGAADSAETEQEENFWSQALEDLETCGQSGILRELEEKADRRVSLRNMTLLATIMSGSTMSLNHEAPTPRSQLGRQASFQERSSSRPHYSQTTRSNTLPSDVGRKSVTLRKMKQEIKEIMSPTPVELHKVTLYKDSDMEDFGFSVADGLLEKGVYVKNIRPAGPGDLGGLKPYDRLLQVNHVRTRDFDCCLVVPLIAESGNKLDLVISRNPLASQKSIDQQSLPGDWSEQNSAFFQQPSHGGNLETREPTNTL
UniProt O60260: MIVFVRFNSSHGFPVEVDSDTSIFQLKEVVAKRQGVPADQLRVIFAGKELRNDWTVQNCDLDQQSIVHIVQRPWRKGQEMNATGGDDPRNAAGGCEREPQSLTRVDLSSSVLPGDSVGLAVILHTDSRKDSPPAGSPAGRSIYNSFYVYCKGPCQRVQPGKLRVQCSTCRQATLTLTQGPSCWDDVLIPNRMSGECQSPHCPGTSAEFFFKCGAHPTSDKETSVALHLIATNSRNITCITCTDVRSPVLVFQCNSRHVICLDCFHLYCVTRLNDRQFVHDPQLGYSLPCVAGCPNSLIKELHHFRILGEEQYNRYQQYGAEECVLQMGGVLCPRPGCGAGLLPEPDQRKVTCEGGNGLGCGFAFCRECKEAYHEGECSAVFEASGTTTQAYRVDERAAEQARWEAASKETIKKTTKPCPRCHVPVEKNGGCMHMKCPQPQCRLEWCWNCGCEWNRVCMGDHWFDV
UniProt P42262, residues 25-883: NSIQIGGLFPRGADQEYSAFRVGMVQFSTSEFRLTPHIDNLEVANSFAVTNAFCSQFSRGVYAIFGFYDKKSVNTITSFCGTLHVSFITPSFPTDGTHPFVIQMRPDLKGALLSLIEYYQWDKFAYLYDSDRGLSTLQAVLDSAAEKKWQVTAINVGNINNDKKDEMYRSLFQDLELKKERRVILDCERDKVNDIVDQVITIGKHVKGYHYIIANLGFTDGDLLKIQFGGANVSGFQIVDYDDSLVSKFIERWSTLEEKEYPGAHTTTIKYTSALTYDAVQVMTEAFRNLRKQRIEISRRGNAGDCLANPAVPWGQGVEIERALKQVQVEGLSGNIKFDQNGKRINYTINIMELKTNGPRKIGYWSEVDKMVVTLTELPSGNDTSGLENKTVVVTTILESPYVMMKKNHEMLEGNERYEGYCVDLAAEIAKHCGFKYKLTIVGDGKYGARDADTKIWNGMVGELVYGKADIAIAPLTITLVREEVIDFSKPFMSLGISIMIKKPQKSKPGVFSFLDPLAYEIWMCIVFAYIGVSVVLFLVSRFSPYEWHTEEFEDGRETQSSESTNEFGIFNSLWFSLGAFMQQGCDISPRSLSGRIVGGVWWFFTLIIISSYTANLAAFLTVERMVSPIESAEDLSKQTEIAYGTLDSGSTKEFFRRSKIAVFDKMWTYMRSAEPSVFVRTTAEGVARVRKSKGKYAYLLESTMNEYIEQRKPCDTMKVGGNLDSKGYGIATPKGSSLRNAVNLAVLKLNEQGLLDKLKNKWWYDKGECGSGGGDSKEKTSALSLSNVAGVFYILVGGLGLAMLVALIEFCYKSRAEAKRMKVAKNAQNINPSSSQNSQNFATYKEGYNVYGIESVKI

Test [1] addresses GRIP1 (human (endogenous in hiPSC-derived RGCs)) (UniProt Q9Y3R0).
The target in test [2] is PICK1 (human (endogenous in hiPSC-derived RGCs)) (UniProt Q9NRD5).
In test [3] the target is Parkin (human (endogenous in hiPSC-derived RGCs)) (UniProt O60260).

Our source for the binding values is publication PMC6627514.

No constants are given. Whether binding was seen depends on the method and setting. Binding seen in cells or lysates may run through a third protein. Some entries that bind do so weakly or less than the wild type.

On to “AMPA receptor subunit GluR2 (from UniProt P42262 25-883)”, for which, in test [1], the binding result is “binds”.

With “protein kinase Cα (from UniProt P17252 1-672) (enzyme)”, the binding entry in test [2] was “binds”.

B1: Homer 1b/1c (protein, UniProt Q86YM7 1-354)
chain: MGEQPIFSTRAHVFQIDPNTKKNWVPTSKHAVTVSYFYDSTRNVYRIISLDGSKAIINSTITPNMTFTKTSQKFGQWADSRANTVYGLGFSSEHHLSKFAEKFQEFKEAARLAKEKSQEKMELTSTPSQESAGGDLQSPLTPESINGTDDERTPDVTQNSEPRAEPTQNALPFSHSSAISKHWEAELATLKGNNAKLTAALLESTANVKQWKQQLAAYQEEAERLHKRVTELECVSSQANAVHTHKTELNQTIQELEETLKLKEEEIERLKQEIDNARELQEQRDSLTQKLQEVEIRNKDLEGQLSDLEQRLEKSQNEQEAFRNNLKTLLEILDGKIFELTELRDNLAKLLECS
Consider B1, for which, in test [3], the binding entry is “binds”.
